The other results are listed elsewhere or left out.
The sequences below were run against T1, OsSMF1 (Oryza sativa, UniProt Q6ZLB0 1-436) (assay: protein-binding microarray (RPBM); PBS, 2% BSA, 51.3 ng/ul salmon testes DNA, 50 uM zinc acetate, 200 nM TF, 25 C, 1 h; high values mean tight binding). Settings: protein: recombinant; tags: N-terminal polyhistidine and DsRed monomer fusion (pET32a); chain copies: 2; label: CyDye5-dUTP incorporated in the synthesized complementary strand; 3' TTTTT single-stranded linker to array surface; dsDNA, one strand shown.
T1 sequence: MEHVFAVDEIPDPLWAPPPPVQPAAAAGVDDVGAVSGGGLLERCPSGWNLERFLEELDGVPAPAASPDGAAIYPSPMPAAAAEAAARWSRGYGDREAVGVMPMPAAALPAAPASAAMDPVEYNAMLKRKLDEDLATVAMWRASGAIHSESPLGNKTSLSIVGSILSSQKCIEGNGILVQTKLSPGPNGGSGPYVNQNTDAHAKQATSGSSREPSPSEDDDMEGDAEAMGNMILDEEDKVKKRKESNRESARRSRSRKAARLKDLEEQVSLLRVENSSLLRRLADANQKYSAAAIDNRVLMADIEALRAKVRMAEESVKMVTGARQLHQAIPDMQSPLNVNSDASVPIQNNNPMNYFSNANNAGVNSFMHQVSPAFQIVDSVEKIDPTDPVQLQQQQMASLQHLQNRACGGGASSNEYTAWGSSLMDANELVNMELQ
How it was run: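 In PBS with 2% BSA, salmon testes DNA and 50 µM zinc acetate, 200 nM protein was incubated on a custom Agilent array at 25 °C for 1 h and then washed off. The array had been made double-stranded by primer extension with Cy5-dUTP and blocked with 2% BSA. The proteins were transcription factors fused N-terminally to polyhistidine and DsRed, expressed in E. coli BL21-CodonPlus and purified on Ni–NTA. The binding signal is per-feature fluorescence intensity (arbitrary units) from an Axon 4000B scanner.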

Sequence | binding signal
CCACTACCACTACAACTGTATCCTACTGTGACACGCTCCACGGAGTCACCTAGTGCAG | 3260 fluorescence intensity (a.u.)
GGTTGCGATGCTGTTATTGTCATGCCTGTGACAACGCCTGCGGAGTCACCTAGTGCAG | 3810 fluorescence intensity (a.u.)
GTATGATATTTATGCTTTTCTACACGTTCCTGAAAGGATGCGGAGTCACCTAGTGCAG | 3150 fluorescence intensity (a.u.)
TTCCGGCATGCTCAACAATTGGTCCAGGTGTTTGTTCCAGCGGAGTCACCTAGTGCAG | 42200 fluorescence intensity (a.u.)
CCCCGATCCCCTCCGTCATCGCTCCTAACCAATCAGCGCACGGAGTCACCTAGTGCAG | 4100 fluorescence intensity (a.u.)
ACCCGACCGCTACGCTGTCCTCCTAGGTGCTCACCAAGATCGGAGTCACCTAGTGCAG | 3360 fluorescence intensity (a.u.)
TCAATCATTCACATATGGCAATGACTCATACTCTTAATTGCGGAGTCACCTAGTGCAG | 12000 fluorescence intensity (a.u.)
CTTTGTCCGTTGCTTTTGCGGCGTGGGGTGACGCGGGGTACGGAGTCACCTAGTGCAG | 5120 fluorescence intensity (a.u.)
CTCCGAATCATTATCTACTGGGCTTATATTGAGCCAGGCCCGGAGTCACCTAGTGCAG | 3650 fluorescence intensity (a.u.)
CCGTCTTCCCGTCGACGATGCCCGACGTGTCCTTGCCCCACGGAGTCACCTAGTGCAG | 6960 fluorescence intensity (a.u.)
AACATCAGCATGTTGGGCATCATGCCCTGCGGCCAGAAATCGGAGTCACCTAGTGCAG | 19100 fluorescence intensity (a.u.)
GTTTGCTAAATTTGGATGTCATCTGCATTGTGGGCTCGCTCGGAGTCACCTAGTGCAG | 4810 fluorescence intensity (a.u.)
GGACGTAGCCGTCGTCCTAGTCACTCACTCACTCATCACGCGGAGTCACCTAGTGCAG | 8140 fluorescence intensity (a.u.)
AGGATGTTCCTGACCTGGCCTTTGCCGGGTGATTTTGCAGCGGAGTCACCTAGTGCAG | 4510 fluorescence intensity (a.u.)
ACTCCTCACATATATATATATACCACATTGTTGTCATGGCCGGAGTCACCTAGTGCAG | 3490 fluorescence intensity (a.u.)
ACCGGCTCATTGCACACGTCAGGCATCTCGCGCCTATGTGCGGAGTCACCTAGTGCAG | 10400 fluorescence intensity (a.u.)
GGTAGTTTTGCTGACGATTTCATCCGACGTGGCGTGTTGACGGAGTCACCTAGTGCAG | 14300 fluorescence intensity (a.u.)
CCAGTCAATTAGTCAAACCCCATCCACCTCTCCTGGCTCTCGGAGTCACCTAGTGCAG | 4540 fluorescence intensity (a.u.)
CCGTATCGCATGCCCTCCCTCCCCGCATCGCACTTCTCCACGGAGTCACCTAGTGCAG | 3490 fluorescence intensity (a.u.)
TTACATGAACAGGGAAACCCTTTGGTTGTCAGCGTTCCTCCGGAGTCACCTAGTGCAG | 3440 fluorescence intensity (a.u.)
AGAAATATTTACGAACTGTTACTACTTGCTTGGACATATTCGGAGTCACCTAGTGCAG | 3310 fluorescence intensity (a.u.)

Sequence | binding signal
TTACCCTTAGTCATTTGACCCTATTACATGTGGGACCCACCGGAGTCACCTAGTGCAG | 3900 fluorescence intensity (a.u.)
GTGGAGATGTTTGGGATGAGTCACTTGAATCTCCTTTCTACGGAGTCACCTAGTGCAG | 10200 fluorescence intensity (a.u.)
TGACCGTCCGATCCCACGTCAGAGCAAGATGGACCGTCCGCGGAGTCACCTAGTGCAG | 11000 fluorescence intensity (a.u.)
AAATACAGGATATAAACGGACGTGTGGTCTCGTGGATCGGCGGAGTCACCTAGTGCAG | 3180 fluorescence intensity (a.u.)
CGCTCCGGCTCGCCATGACTGCCTATGTGGACCTGCCTCTCGGAGTCACCTAGTGCAG | 4660 fluorescence intensity (a.u.)
ACGCTACCTATAATAAGCTGATGTGCCAATCTTGGAGCCACGGAGTCACCTAGTGCAG | 4050 fluorescence intensity (a.u.)
GGAATAAATTATTTATCATTGGACCTACATGTCATGGACACGGAGTCACCTAGTGCAG | 3950 fluorescence intensity (a.u.)
ATCCTGATACTGACAACCTTGACTACATTTACTTGGTCACCGGAGTCACCTAGTGCAG | 3900 fluorescence intensity (a.u.)
GCCGCCGCCGCCTCCTCCTCTTGTTTCGCCACCGCCGCCGCGGAGTCACCTAGTGCAG | 3200 fluorescence intensity (a.u.)
TTAAGACTAGTATATACACACATACATACTCCCTGCGTCACGGAGTCACCTAGTGCAG | 3350 fluorescence intensity (a.u.)
TTTCCCAACTAAACAATGCGTTGGGGCAAGTATTATAATGCGGAGTCACCTAGTGCAG | 35800 fluorescence intensity (a.u.)
TCGTATACCCCGGCCATACGTGTTACGTGTTGTGCGCACACGGAGTCACCTAGTGCAG | 6120 fluorescence intensity (a.u.)
GAGGTCGATGCGGACGCCTCTATTTAATCGCCACCGCAGCCGGAGTCACCTAGTGCAG | 3190 fluorescence intensity (a.u.)
TCTGCAAGCACCAACGAGAAGCCACAAATGTTCACATCACCGGAGTCACCTAGTGCAG | 3610 fluorescence intensity (a.u.)
AAGATAATGATGTAGACACGCAATCTGCGCGGGCCCACCACGGAGTCACCTAGTGCAG | 3600 fluorescence intensity (a.u.)
GTAATGAATTGATGGATGATGTGTCTGATTATTGGCACTGCGGAGTCACCTAGTGCAG | 7800 fluorescence intensity (a.u.)
TCGATCATACTCTAAAATCCACATCATGGTTCACAAGAAGCGGAGTCACCTAGTGCAG | 3400 fluorescence intensity (a.u.)
ACGTAAGAGGGACGTGGATCACTGACGTGTGGACCCAACCCGGAGTCACCTAGTGCAG | 12400 fluorescence intensity (a.u.)
ACATACATGCTACCCAATTTTGATTATTACTGTGCAGTTGCGGAGTCACCTAGTGCAG | 3590 fluorescence intensity (a.u.)
AGCAACTGGGTGGGGCGACGACGGGGATGGGTGGCAAACTCGGAGTCACCTAGTGCAG | 3770 fluorescence intensity (a.u.)
TTGTATCTGTGTGAGCGCCACCTGAGCATGCATGATTGCTCGGAGTCACCTAGTGCAG | 3590 fluorescence intensity (a.u.)

Some of the entries so far, comma-delimited.
Sequence,binding signal
TTCCGGCATGCTCAACAATTGGTCCAGGTGTTTGTTCCAGCGGAGTCACCTAGTGCAG,42200 fluorescence intensity (a.u.)
CCCCGATCCCCTCCGTCATCGCTCCTAACCAATCAGCGCACGGAGTCACCTAGTGCAG,4100 fluorescence intensity (a.u.)
TCAATCATTCACATATGGCAATGACTCATACTCTTAATTGCGGAGTCACCTAGTGCAG,12000 fluorescence intensity (a.u.)
CCGTCTTCCCGTCGACGATGCCCGACGTGTCCTTGCCCCACGGAGTCACCTAGTGCAG,6960 fluorescence intensity (a.u.)
GTTTGCTAAATTTGGATGTCATCTGCATTGTGGGCTCGCTCGGAGTCACCTAGTGCAG,4810 fluorescence intensity (a.u.)
AGGATGTTCCTGACCTGGCCTTTGCCGGGTGATTTTGCAGCGGAGTCACCTAGTGCAG,4510 fluorescence intensity (a.u.)
ACCGGCTCATTGCACACGTCAGGCATCTCGCGCCTATGTGCGGAGTCACCTAGTGCAG,10400 fluorescence intensity (a.u.)
GGAATAAATTATTTATCATTGGACCTACATGTCATGGACACGGAGTCACCTAGTGCAG,3950 fluorescence intensity (a.u.)
TTTCCCAACTAAACAATGCGTTGGGGCAAGTATTATAATGCGGAGTCACCTAGTGCAG,35800 fluorescence intensity (a.u.)
GTAATGAATTGATGGATGATGTGTCTGATTATTGGCACTGCGGAGTCACCTAGTGCAG,7800 fluorescence intensity (a.u.)
TCGATCATACTCTAAAATCCACATCATGGTTCACAAGAAGCGGAGTCACCTAGTGCAG,3400 fluorescence intensity (a.u.)

Source: article PMC7819943, “Rice protein-binding microarrays: a tool to detect cis-acting elements near promoter regions in rice”
